Experimental data taken from publication PMC9969401, “Discovery of 2-(3-Benzamidopropanamido)thiazole-5-carboxylate Inhibitors of the Kinesin HSET (KIFC1) and the Development of Cellular Target Engagement Probes” (Journal of Medicinal Chemistry, 2023).

Test: IEDDA test reaction of TCO probes with model tetrazine (LC-MS)
Settings: TCO probe:tetrazine 1:2, room temperature, 5 min

CCCOC(=O)c1sc(NC(=O)C[C@H](CCCN(C)C(=O)O[C@@H]2CC/C=C/CCC2)NC(=O)c2cccc(-c3noc(C)n3)c2)nc1C [Compound 38, Propyl 2-((S)-6-(((((S,E)-Cyclooct-4-en-1-yl)oxy)carbonyl)(methyl)amino)-3-(3-(5-methyl-1,2,4-oxadiazol-3-yl)benzamido)hexanamido)-4-methylthiazole-5-carboxylate]
conversion in IEDDA reaction: 91%

CCCOC(=O)c1sc(NC(=O)C[C@H](CCCN(C)CC#CCNC(=O)O[C@@H]2CC/C=C/CCC2)NC(=O)c2cccc(-c3noc(C)n3)c2)nc1C [Compound 40, propyl 2-((S)-6-((4-(((((S,E)-Cyclooct-4-en-1-yl)oxy)carbonyl)amino)but-2-yn-1-yl)(methyl)amino)-3-(3-(5-methyl-1,2,4-oxadiazol-3-yl)benzamido)hexanamido)-4-methylthiazole-5-carboxylate]
conversion in IEDDA reaction: 84%

CCCOC(=O)c1sc(NC(=O)C[C@H](CCCN(C)CCOCCOCCNC(=O)O[C@@H]2CC/C=C/CCC2)NC(=O)c2cccc(-c3noc(C)n3)c2)nc1C [Compound 39, Propyl 2-((S)-1-(((S,E)-Cyclooct-4-en-1-yl)oxy)-11-methyl-15-(3-(5-methyl-1,2,4-oxadiazol-3-yl)benzamido)-1-oxo-5,8-dioxa-2,11-diazaheptadecan-17-amido)-4-methylthiazole-5-carboxylate]
conversion in IEDDA reaction: 35%
